Fewer than 10 of roughly 1,400 compounds were called active.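 The calls were made as follows: active = fluorescence-lowering compounds whose fitted half-maximal concentration is at or below ten times the highest valid dose tested; inconclusive = flat curve at 30 to 70% inhibition, or poor fit; inactive = the rest.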 Some of the results follow.
molecular target: Histone deacetylase 3 (Homo sapiens) (UniProt O15379); assay: inhibition of human HDAC3 enzymatic activity – biochemical, fluorescence, cherry-picked samples, counter-screen for JMJD2C/GASC1 demethylase inhibitor project, dose response (AID 485318); conditions: recombinant HDAC3, fluorogenic peptide/trypsin coupled; at 12 µM (top of the series);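 also: enzyme preincubated with compound before substrate and trypsin were added; 0% = neutral control wells and -100% = SAHA positive control wells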

Sequences of proteins named here, by UniProt entry; tags and fusion partners are left off. A change or cut given only in a name is not applied to a line headed by its entry.
UniProt O15379: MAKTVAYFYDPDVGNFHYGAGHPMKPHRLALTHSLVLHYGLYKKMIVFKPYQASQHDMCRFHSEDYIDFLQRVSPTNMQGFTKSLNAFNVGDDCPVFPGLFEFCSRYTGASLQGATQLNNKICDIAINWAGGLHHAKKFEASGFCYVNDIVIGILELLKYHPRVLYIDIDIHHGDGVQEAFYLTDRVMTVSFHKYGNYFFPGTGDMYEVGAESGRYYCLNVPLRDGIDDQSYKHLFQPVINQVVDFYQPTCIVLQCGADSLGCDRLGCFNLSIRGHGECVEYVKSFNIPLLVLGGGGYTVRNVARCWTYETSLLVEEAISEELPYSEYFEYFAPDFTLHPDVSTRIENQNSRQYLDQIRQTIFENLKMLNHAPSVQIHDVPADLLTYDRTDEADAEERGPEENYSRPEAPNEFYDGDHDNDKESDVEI

CCc1ccc(N2C(=O)NC(=O)/C(=C\c3cc(C)n(-c4cc(C(=O)O)cc(C(=O)O)c4)c3C)C2=O)cc1 was tested. Which activity change, negative = inhibition did it give?
Its activity change, negative = inhibition is inactive: -1.7%.

Which activity change, negative = inhibition does the source give for Cn1ncnc2c(=O)n(C)c(=O)nc1-2 here?
The activity change, negative = inhibition was inactive: -0.0129%.

With CC1(C)OC(c2ccccc2)=C/C(=C/C=C2C(=O)NC(=S)NC2=O)O1 as the compound, how does the activity change, negative = inhibition read?
The activity change, negative = inhibition was inactive: 0.571%.

C=CCn1c(O)c(/C(C)=N/NC(=S)Nc2ccccc2)c(=O)[nH]c1=O was tested. Which activity change, negative = inhibition did it give?
Its activity change, negative = inhibition is inactive: 0.842%.

Which activity change, negative = inhibition does the source give for CCC(=NCC1CCCO1)c1c(O)[nH]c(=O)[nH]c1=O (centres undefined) here?
The activity change, negative = inhibition was inactive: -0.00937%.

Which activity change, negative = inhibition does the source give for COc1ccc(OC)c(N2C(=O)/C(=C/c3ccco3)C(=O)NC2=S)c1 here?
Its activity change, negative = inhibition is inactive: 0.0554%.

For CCOc1cc(C=C2C(=O)NC(=O)NC2=O)cc([N+](=O)[O-])c1O, which activity change, negative = inhibition is on record?
The activity change, negative = inhibition was inactive: 0.274%.

Which activity change, negative = inhibition does the source give for Cc1cccc(N2C(=O)NC(=O)/C(=C\c3cnc(-c4ccccc4)nc3)C2=O)c1 here?
The activity change, negative = inhibition was inactive: 0.427%.

CN(C)c1ccc(/C=C2/C(=O)NC(=O)N(Cc3ccco3)C2=O)cc1 was tested. Which activity change, negative = inhibition did it give?
The activity change, negative = inhibition was inactive: 0.691%.

How did the activity change, negative = inhibition turn out when COc1ccc(/C=C2/C(=O)NC(=O)N(C3CCCCC3)C2=O)cc1CSc1ccccn1 was run?
The activity change, negative = inhibition was inactive: 0.021%.

Which activity change, negative = inhibition does the source give for COc1ccc(CC2C(=O)NC(=O)N(c3ccccc3)C2=O)c(OC)c1 (centres undefined) here?
The activity change, negative = inhibition was inactive: 0.0457%.

Which activity change, negative = inhibition does the source give for COc1cc(CC2C(=O)N(C)C(=O)N(C)C2=O)ccc1OCc1ccccc1 here?
Its activity change, negative = inhibition is inactive: -0.256%.

With CC(C)Oc1ccc(Cc2c(O)[nH]c(=O)[nH]c2=O)cc1 as the compound, how does the activity change, negative = inhibition read?
Its activity change, negative = inhibition is inactive: -0.759%.

Which activity change, negative = inhibition does the source give for CCOC(=O)/C(=N\Nc1ccccc1)N1CC1 here?
The activity change, negative = inhibition was inactive: 1.12%.

COc1ccc(N2C(=O)NC(=O)/C(=C/c3cccc(OC(=O)c4cccs4)c3)C2=O)cc1Cl was tested. Which activity change, negative = inhibition did it give?
The activity change, negative = inhibition was inactive: 0.566%.

Which activity change, negative = inhibition does the source give for O=C1NC(=O)C(Sc2ccccc2[N+](=O)[O-])C(=O)N1 here?
Its activity change, negative = inhibition is inactive: 1.15%.

How did the activity change, negative = inhibition turn out when CC1C(c2cccs2)=[N+]([O-])C(C)(C(=O)c2ccc(Cl)cc2)N1O (centres undefined) was run?
Its activity change, negative = inhibition is inactive: 0.334%.

How did the activity change, negative = inhibition turn out when O=C1NC(=O)N(Cc2ccccc2)C(=O)/C1=C/C=C/c1ccco1 was run?
Its activity change, negative = inhibition is inactive: -0.152%.

For c1ccc2c3c(ccc2c1)OCC1CONC31 (centres undefined), which activity change, negative = inhibition is on record?
Its activity change, negative = inhibition is inactive: -0.24%.

Which activity change, negative = inhibition does the source give for Cc1nc2c(=O)n(C)c(=O)nc-2n(C)n1 here?
The activity change, negative = inhibition was inactive: -0.0871%.

With Cc1cc(C=C2C(=O)NC(=S)NC2=O)c(C)n1-c1ccc2c(c1)OCO2 as the compound, how does the activity change, negative = inhibition read?
The activity change, negative = inhibition was inactive: 0.553%.

O=C1NC(=O)C(=Cc2csc3ccccc23)C(=O)N1 was tested. Which activity change, negative = inhibition did it give?
Its activity change, negative = inhibition is inactive: -0.693%.

With C=CCN1C(=O)NC(=O)/C(=C/c2ccc(OC)c(CSc3ccccn3)c2)C1=O as the compound, how does the activity change, negative = inhibition read?
The activity change, negative = inhibition was inactive: -0.106%.

Which activity change, negative = inhibition does the source give for COC(=O)C1=C(c2ccc(OCc3ccccc3)cc2)C[C@@H]2CC[C@H]1N2C(=O)NCc1ccc([N+](=O)[O-])cc1 here?
Its activity change, negative = inhibition is inactive: -0.185%.
